# PubChem BioAssay AID1508597 | Cure First – 2020
# Purpose: 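Genes whose silencing sensitises or protects ovarian cancer cells against rucaparib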 (primary screen)
# Cell system: human ovarian carcinoma lines grown from tumours: OCI-P5x (papillary serous) and OCI-C5x (clear cell)
# Reagent: siRNA pool against human genes, 1.25 pmol siRNA per well
# Duration: 72 h or 96 h, depending on the cell culture
# Treatment: rucaparib 20 µM (about IC30) or vehicle, present until read-out
# Read-out: 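ATP luminescence measured at 72 or 96 h according to the culture, then normalised and expressed as percent viability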
# Reading the numbers: viability, normalised: higher = more viable cells remaining
# Rule for the call: 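a well counts as a hit if its normalised viability is under 80 percent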
# Meaning of the calls: active = viability under 80%; inactive = viability 80% or more
# The deposit covers about 2,100 reagents; below is a part drawn at random. 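Calls flag viability under 80% in either arm, not effects specific to rucaparib; the reference for percent is not stated.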 Not stated in the record: the 100% reference.
target gene,rucaparib or vehicle,cell line,technical replicate,"viability, normalised (%)",call
DDX51,Rucaparib,OCI-C5x (clear cell),1,43.6,active
DDX51,Rucaparib,OCI-C5x (clear cell),2,40.3,active
DDX51,Rucaparib,OCI-C5x (clear cell),3,49,active
DDX51,Rucaparib,OCI-P5x (serous),1,39.8,active
DDX51,Rucaparib,OCI-P5x (serous),2,57.6,active
DDX51,Rucaparib,OCI-P5x (serous),3,58.4,active
DDX51,Vehicle,OCI-C5x (clear cell),1,32.1,active
DDX51,Vehicle,OCI-C5x (clear cell),2,40.3,active
DDX51,Vehicle,OCI-C5x (clear cell),3,38.3,active
DDX51,Vehicle,OCI-P5x (serous),1,35.6,active
DDX51,Vehicle,OCI-P5x (serous),2,48,active
DDX51,Vehicle,OCI-P5x (serous),3,50.7,active
AICDA,Rucaparib,OCI-C5x (clear cell),1,73.2,active
AICDA,Rucaparib,OCI-C5x (clear cell),2,56.5,active
AICDA,Rucaparib,OCI-C5x (clear cell),3,59.6,active
AICDA,Rucaparib,OCI-P5x (serous),1,85.7,inactive
AICDA,Rucaparib,OCI-P5x (serous),2,70.8,active
AICDA,Rucaparib,OCI-P5x (serous),3,77,active
AICDA,Vehicle,OCI-C5x (clear cell),1,67.7,active
AICDA,Vehicle,OCI-C5x (clear cell),2,45.3,active
AICDA,Vehicle,OCI-C5x (clear cell),3,66.9,active
AICDA,Vehicle,OCI-P5x (serous),1,50.2,active
AICDA,Vehicle,OCI-P5x (serous),2,77.4,active
AICDA,Vehicle,OCI-P5x (serous),3,59.9,active

Reformatted: entries from further up
{"target gene": "DDX51", "rucaparib or vehicle": "Rucaparib", "cell line": "OCI-P5x (serous)", "technical replicate": "3", "viability, normalised (%)": 58.4, "call": "active"}
{"target gene": "DDX51", "rucaparib or vehicle": "Vehicle", "cell line": "OCI-C5x (clear cell)", "technical replicate": "1", "viability, normalised (%)": 32.1, "call": "active"}
